Data as given in PubChem BioAssay AID1159578 (Peter MacCallum Cancer Centre, 2015)
Assay: 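Knock-downs that alter how fast lymphatic endothelial cells migrate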 (primary screen). Cells: human lymphatic endothelial cells. Reagents: siRNA pool against human genes, 40 nM. Time to read-out: 48 h after transfection. Detection: 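Cells stained with dye and imaged after a scratch; covered wound area and nuclei counted, duplicates averaged, migration set against mock wells and turned into a robust z-score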. Scale: migration robust z-score: higher = faster migration into the scratch; nuclei per well: higher = more cells in the well. Hit rule: 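Pools averaging fewer than 3300 nuclei are never called; remaining pools count as changed when migration robust z lies outside -2 to 2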. Meaning of the calls: active = migration changed; inactive = no migration change, or too few cells.
In all, the deposit lists about 18,000 reagents; shown is a part drawn at random. About 1,030 of all reagents (5.7%) were called active. 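Inactive calls also include pools with fewer than 3300 nuclei, whose migration was not assessed.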 The raw values are shown without normalisation. A number with no mark means an inactive call. Further read-outs or replicates are left out here.

For LMO7 the deposit lists migration robust z-score -0.21; migration class with cell-count check migration z between -2 and 2; enough cells; nuclei per well, duplicate mean 5087. Against CXCL9, the entry reads migration robust z-score 0.71; migration class with cell-count check migration z between -2 and 2; enough cells; nuclei per well, duplicate mean 5832. Against MRPL21 the deposit lists migration robust z-score 1.44; migration class with cell-count check migration z between -2 and 2; enough cells; nuclei per well, duplicate mean 6304. Silencing of NFKBIB came out at: migration robust z-score -0.8; migration class with cell-count check migration z between -2 and 2; enough cells; nuclei per well, duplicate mean 3930. Against TDRD1, the entry reads migration robust z-score -0.54; migration class with cell-count check migration z between -2 and 2; enough cells; nuclei per well, duplicate mean 4540. With knock-down of PPHLN1 the results were migration robust z-score -0.77; migration class with cell-count check migration z between -2 and 2; enough cells; nuclei per well, duplicate mean 5308.

Against MKX the deposit lists migration robust z-score -0.26; migration class with cell-count check migration z between -2 and 2; enough cells; nuclei per well, duplicate mean 5782. With knock-down of HYAL4 the results were migration robust z-score -5.57; migration class with cell-count check under 3300 nuclei; migration not judged; nuclei per well, duplicate mean 2168. Silencing of FAM86C1P gave: migration robust z-score 0.88; migration class with cell-count check migration z between -2 and 2; enough cells; nuclei per well, duplicate mean 6932. With knock-down of TTC33, the screen gave migration robust z-score -0.96; migration class with cell-count check migration z between -2 and 2; enough cells; nuclei per well, duplicate mean 6932. FMO1 showed migration robust z-score -0.21; migration class with cell-count check migration z between -2 and 2; enough cells; nuclei per well, duplicate mean 7292. Silencing of ART1 gave: migration robust z-score -1.3; migration class with cell-count check migration z between -2 and 2; enough cells; nuclei per well, duplicate mean 5264.

Against LILRB4 the deposit lists migration robust z-score -1.2; migration class with cell-count check migration z between -2 and 2; enough cells; nuclei per well, duplicate mean 5449. For SMIM12 the deposit lists migration robust z-score -0.56; migration class with cell-count check migration z between -2 and 2; enough cells; nuclei per well, duplicate mean 6650. With knock-down of KASH5, the record shows migration robust z-score -1.78; migration class with cell-count check migration z between -2 and 2; enough cells; nuclei per well, duplicate mean 6068. After knock-down of NFXL1, the screen gave migration robust z-score 1.32; migration class with cell-count check migration z between -2 and 2; enough cells; nuclei per well, duplicate mean 5920. Against RETREG1, the entry reads migration robust z-score 0.55; migration class with cell-count check migration z between -2 and 2; enough cells; nuclei per well, duplicate mean 4544. CD101 gave migration robust z-score -0.56; migration class with cell-count check migration z between -2 and 2; enough cells; nuclei per well, duplicate mean 4936.

Depletion of TUBG2 gave: migration robust z-score 0.07; migration class with cell-count check migration z between -2 and 2; enough cells; nuclei per well, duplicate mean 5399. For PSG2 the deposit lists migration robust z-score 0.95; migration class with cell-count check migration z between -2 and 2; enough cells; nuclei per well, duplicate mean 5456. ECT2 gave migration robust z-score 0.83; migration class with cell-count check migration z between -2 and 2; enough cells; nuclei per well, duplicate mean 5332.

Laid out differently: 2 of the entries above
{"gene": "TUBG2", "migration robust z-score": 0.07, "migration class with cell-count check": "migration z between -2 and 2; enough cells", "nuclei per well, duplicate mean": 5399}
{"gene": "PSG2", "migration robust z-score": 0.95, "migration class with cell-count check": "migration z between -2 and 2; enough cells", "nuclei per well, duplicate mean": 5456}
